Four molecules from publication PMC9144050 can be followed below.

Amino acid sequences for entries named in this document (tags omitted).
UniProt Q8VDZ4: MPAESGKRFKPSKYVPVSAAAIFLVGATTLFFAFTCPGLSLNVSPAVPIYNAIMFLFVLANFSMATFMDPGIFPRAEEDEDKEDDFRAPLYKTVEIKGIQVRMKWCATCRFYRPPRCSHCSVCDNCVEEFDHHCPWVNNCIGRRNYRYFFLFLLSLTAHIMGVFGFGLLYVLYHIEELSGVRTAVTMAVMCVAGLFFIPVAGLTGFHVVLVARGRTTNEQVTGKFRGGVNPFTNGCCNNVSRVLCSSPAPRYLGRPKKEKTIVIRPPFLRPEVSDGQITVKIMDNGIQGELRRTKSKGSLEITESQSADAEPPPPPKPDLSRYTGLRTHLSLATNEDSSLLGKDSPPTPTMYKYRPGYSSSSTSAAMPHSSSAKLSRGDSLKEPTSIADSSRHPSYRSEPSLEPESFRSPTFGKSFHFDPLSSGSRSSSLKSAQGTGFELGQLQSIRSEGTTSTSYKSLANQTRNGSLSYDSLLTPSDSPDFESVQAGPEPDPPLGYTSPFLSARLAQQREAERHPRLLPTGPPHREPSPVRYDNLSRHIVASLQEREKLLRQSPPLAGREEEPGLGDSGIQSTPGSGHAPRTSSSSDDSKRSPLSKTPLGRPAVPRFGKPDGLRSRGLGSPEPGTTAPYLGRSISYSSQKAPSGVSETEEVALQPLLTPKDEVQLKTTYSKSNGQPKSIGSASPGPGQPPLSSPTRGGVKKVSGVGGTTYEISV
UniProt P25911: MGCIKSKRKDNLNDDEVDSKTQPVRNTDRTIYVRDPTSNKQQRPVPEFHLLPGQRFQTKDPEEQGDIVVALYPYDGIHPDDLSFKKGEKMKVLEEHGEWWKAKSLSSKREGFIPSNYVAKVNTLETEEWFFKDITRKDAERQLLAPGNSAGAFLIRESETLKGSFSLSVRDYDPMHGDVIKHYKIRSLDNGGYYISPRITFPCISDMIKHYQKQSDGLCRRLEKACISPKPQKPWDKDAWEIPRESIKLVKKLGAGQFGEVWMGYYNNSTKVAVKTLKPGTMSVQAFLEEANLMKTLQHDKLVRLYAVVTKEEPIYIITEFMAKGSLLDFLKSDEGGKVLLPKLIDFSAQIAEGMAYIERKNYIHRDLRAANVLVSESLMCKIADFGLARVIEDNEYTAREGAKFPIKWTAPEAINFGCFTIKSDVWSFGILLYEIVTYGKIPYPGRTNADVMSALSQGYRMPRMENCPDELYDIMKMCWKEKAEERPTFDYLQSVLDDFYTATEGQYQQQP
UniProt Q08857: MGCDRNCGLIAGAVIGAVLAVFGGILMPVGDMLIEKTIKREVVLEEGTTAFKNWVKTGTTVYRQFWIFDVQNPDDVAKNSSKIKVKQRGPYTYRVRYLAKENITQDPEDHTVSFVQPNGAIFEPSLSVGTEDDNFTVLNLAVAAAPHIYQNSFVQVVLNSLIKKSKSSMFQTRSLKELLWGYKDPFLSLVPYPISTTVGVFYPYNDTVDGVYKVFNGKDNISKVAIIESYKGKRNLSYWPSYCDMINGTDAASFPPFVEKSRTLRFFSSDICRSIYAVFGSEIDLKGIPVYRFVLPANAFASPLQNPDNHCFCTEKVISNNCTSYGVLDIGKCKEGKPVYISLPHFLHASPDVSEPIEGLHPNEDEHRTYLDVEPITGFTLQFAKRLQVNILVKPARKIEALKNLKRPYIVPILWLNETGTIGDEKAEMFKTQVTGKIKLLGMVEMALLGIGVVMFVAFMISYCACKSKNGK
UniProt P39688: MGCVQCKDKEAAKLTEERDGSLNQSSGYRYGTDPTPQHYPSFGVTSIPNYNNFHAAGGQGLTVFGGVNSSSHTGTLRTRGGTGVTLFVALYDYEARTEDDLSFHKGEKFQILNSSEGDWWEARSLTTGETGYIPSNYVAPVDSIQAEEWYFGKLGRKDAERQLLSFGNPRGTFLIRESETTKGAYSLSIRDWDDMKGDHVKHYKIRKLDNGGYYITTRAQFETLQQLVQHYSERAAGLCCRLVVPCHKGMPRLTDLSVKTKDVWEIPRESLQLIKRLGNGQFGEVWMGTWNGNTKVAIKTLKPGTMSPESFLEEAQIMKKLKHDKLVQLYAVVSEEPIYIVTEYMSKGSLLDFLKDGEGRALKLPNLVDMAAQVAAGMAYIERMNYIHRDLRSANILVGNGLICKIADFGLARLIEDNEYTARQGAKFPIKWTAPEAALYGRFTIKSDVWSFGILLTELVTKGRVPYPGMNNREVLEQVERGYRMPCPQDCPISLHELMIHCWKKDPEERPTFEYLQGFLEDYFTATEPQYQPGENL

These are yes or no findings as the source states them, for the method shown. In cells and extracts the contact can be indirect. Some results given as binding are weak or reduced against the parent protein; the word gives no strength. For some of these results: Tags and fused reporters may be left off the sequences shown.

Experiment [1] deals with T1, DHHC4 (mouse (endogenous in RAW264.7)) (UniProt Q9D6H5).
T1 sequence: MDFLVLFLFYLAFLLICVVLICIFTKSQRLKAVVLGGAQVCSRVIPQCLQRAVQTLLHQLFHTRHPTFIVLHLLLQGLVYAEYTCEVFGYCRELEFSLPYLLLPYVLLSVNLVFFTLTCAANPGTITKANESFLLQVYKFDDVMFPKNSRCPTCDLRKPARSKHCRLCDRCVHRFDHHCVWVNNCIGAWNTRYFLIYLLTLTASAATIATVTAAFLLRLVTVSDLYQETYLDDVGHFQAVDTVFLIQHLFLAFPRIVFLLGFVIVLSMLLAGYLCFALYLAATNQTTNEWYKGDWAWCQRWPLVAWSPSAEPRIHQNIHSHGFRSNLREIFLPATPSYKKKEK
Kind of experiment: co-IP; RAW264.7 cells treated with HDL or oxHDL; RIPA lysates immunoprecipitated with DHHC4, DHHC5 or DHHC6 antibody and Protein A/G Sepharose at 4 °C; blots for CD36 and the DHHCs.

Experiment [2] addresses DHHC5 (mouse (endogenous in RAW264.7)) (UniProt Q8VDZ4). The description is as above.
For experiment [3], the target named is T2, DHHC6 (Asp-His-His-Cys) acyltransferase (mouse (endogenous in RAW264.7)) (UniProt Q9CPV7).
T2 sequence: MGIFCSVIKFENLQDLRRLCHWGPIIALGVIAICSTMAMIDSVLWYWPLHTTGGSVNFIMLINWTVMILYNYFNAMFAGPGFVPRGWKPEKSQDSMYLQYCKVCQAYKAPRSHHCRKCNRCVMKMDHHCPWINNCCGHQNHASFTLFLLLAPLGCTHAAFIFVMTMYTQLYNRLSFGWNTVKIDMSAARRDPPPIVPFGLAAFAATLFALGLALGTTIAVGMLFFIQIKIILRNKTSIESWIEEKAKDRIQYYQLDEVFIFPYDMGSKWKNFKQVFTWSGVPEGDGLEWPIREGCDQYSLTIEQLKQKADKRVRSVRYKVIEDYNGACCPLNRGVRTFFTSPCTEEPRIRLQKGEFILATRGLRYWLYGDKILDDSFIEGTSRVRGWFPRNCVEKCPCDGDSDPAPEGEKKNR
The description is as above.

Experiment [4] addresses Lyn (mouse (endogenous in RAW264.7)) (UniProt P25911). Kind of experiment: co-IP; RAW264.7 cells untreated or treated with HDL or oxHDL (80 ug/ml, 24 h), also oxHDL with 2-BP (100 uM); RIPA lysates immunoprecipitated with anti-Lyn antibody and Protein A/G Sepharose at 4 °C; blots for CD36, Fyn and Lyn.
The target in experiment [5] is T2, DHHC6 (Asp-His-His-Cys) acyltransferase (mouse (endogenous in RAW264.7)). Description: co-IP; RAW264.7 cells treated with HDL or oxHDL; RIPA lysates precipitated for DHHC6, Protein A/G Sepharose at 4 °C; blot for SelK.
In experiment [6] the target is Cluster of differentiation 36 (CD36) (mouse (endogenous in RAW264.7)) (UniProt Q08857). Description: co-IP; RAW264.7 cells treated with HDL or oxHDL; RIPA lysates immunoprecipitated for CD36, Protein A/G Sepharose at 4 °C; blot for Cav-1.

With “Cluster of differentiation 36 (CD36) (from UniProt Q08857 1-472) (receptor)”, the binding entry in experiment [1], in experiment [2], in experiment [3] and in experiment [4] was “binds” each time.
For the molecule “Fyn (from UniProt P39688 1-537) (enzyme)”, the binding entry in experiment [4] is recorded as “binds”.

B1: Selenoprotein K (SelK) (protein, UniProt Q9JLJ1 1-94)
chain: MVYISNGQVLDSRNQSPWRVSFLTDFFWGIAEFVVFFFKTLLQQDVKKRRGYGSSSDSRYDDGRGPPGNPPRRMGRISHLRGPSPPPMAGGUGR
Regarding B1, the binding entry in experiment [5] is recorded as “binds”.

B2: Caveolin-1 (Cav-1) (protein, UniProt P49817 1-178)
chain: MSGGKYVDSEGHLYTVPIREQGNIYKPNNKAMADEVTEKQVYDAHTKEIDLVNRDPKHLNDDVVKIDFEDVIAEPEGTHSFDGIWKASFTTFTVTKYWFYRLLSTIFGIPMALIWGIYFAILSFLHIWAVVPCIKSFLIEIQCISRVYSIYVHTFCDPLFEAIGKIFSNIRISTQKEI
As for B2, the binding result in experiment [6] is on record as “binds”.
